Patent publication US6458929 (LICENTIA, dated 2002)
These are yes or no findings as the source states them, for the method shown. Some results given as binding are weak or reduced against the parent protein; the word gives no strength.

The chains behind the UniProt entries cited, without tags or fusion partners. Residues count along the entry.
UniProt P05094, residues 267-749: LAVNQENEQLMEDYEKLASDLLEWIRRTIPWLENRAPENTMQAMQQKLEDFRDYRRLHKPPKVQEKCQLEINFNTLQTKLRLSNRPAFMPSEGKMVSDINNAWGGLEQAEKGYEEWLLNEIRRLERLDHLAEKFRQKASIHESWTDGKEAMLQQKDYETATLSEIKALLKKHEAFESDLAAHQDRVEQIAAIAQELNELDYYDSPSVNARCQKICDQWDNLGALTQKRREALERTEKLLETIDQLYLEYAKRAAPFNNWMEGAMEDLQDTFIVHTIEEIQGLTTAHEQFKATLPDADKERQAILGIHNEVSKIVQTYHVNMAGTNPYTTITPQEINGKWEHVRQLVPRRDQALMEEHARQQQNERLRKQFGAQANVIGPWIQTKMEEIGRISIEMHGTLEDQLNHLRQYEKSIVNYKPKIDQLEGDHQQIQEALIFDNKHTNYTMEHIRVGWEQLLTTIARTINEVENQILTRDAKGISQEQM

Tests used:
[1] = biological target: spectrin-like repeats R1-R4 (residues 267-749) of chicken smooth muscle α-actinin (chicken) (UniProt P05094); assay: yeast two-hybrid; reaction weaker than myotilin/α-actinin and myotilin/myotilin
[2] = biological target: spectrin-like repeats R1-R4 (residues 267-749) of chicken smooth muscle α-actinin (chicken) (UniProt P05094); assay: yeast two-hybrid
[3] = biological target: T1, myotilin (full length, 498 residues) (human), Q9UBF9; assay: yeast two-hybrid; conditions: remark: other sources report otherwise
T1 chain: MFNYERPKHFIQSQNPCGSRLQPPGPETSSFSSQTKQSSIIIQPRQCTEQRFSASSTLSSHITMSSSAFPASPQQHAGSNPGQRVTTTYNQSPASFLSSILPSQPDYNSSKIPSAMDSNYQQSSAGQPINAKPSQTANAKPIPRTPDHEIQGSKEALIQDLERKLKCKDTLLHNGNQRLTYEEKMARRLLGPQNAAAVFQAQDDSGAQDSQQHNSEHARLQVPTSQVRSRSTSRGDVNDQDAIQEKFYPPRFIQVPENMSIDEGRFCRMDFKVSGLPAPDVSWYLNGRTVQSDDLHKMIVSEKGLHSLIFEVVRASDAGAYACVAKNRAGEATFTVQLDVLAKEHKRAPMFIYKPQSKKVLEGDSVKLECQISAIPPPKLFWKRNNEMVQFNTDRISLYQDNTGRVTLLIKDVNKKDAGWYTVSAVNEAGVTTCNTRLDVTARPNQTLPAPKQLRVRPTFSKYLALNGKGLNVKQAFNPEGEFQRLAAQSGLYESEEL

## spectrin-like repeats R1-R4 (residues 267-749) of chicken smooth muscle α-actinin (from UniProt P05094 267-749)
[1]
  binding: binds

B1: myotilin (full length, 498 residues) (protein)
chain: T1 chain
[2]
  binding: binds

B2: myotilin (full length, 498 residues), Q9UBF9 1-498 (protein)
chain: T1 chain
[3]
  binding: binds
